Test results as given in publication PMC3798271.
These are yes or no findings as the source states them, for the method shown. In cells and extracts the contact can be indirect. Some results given as binding are weak or reduced against the parent protein; the word gives no strength.

By UniProt entry, the sequences of proteins in these tests, tags left out.
UniProt O74752: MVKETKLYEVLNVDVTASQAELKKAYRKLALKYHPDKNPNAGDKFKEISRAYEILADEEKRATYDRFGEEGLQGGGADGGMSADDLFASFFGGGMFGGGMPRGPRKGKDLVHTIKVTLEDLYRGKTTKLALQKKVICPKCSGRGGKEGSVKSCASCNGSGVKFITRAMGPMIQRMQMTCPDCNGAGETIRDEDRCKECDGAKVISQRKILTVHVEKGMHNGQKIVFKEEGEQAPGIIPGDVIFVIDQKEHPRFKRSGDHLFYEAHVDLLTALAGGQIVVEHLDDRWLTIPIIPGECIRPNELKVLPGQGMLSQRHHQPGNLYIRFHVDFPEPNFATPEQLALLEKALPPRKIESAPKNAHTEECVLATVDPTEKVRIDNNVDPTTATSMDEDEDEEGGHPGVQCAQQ
UniProt Q10265: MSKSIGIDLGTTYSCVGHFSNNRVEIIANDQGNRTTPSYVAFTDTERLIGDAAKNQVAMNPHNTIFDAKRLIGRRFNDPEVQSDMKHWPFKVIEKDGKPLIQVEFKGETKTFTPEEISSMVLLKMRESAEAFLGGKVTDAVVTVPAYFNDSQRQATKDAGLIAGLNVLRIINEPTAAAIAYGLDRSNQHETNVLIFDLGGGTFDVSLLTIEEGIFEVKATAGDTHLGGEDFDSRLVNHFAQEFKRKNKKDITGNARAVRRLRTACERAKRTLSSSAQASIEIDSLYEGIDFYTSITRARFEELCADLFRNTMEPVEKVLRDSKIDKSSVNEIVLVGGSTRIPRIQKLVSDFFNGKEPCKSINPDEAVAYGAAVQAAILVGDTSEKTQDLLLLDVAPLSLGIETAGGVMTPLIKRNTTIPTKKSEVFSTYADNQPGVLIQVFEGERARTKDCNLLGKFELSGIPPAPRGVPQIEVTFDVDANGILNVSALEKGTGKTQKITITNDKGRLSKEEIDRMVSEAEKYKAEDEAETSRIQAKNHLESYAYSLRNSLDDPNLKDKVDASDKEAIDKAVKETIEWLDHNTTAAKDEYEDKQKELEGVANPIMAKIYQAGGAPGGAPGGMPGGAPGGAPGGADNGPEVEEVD
UniProt O59855: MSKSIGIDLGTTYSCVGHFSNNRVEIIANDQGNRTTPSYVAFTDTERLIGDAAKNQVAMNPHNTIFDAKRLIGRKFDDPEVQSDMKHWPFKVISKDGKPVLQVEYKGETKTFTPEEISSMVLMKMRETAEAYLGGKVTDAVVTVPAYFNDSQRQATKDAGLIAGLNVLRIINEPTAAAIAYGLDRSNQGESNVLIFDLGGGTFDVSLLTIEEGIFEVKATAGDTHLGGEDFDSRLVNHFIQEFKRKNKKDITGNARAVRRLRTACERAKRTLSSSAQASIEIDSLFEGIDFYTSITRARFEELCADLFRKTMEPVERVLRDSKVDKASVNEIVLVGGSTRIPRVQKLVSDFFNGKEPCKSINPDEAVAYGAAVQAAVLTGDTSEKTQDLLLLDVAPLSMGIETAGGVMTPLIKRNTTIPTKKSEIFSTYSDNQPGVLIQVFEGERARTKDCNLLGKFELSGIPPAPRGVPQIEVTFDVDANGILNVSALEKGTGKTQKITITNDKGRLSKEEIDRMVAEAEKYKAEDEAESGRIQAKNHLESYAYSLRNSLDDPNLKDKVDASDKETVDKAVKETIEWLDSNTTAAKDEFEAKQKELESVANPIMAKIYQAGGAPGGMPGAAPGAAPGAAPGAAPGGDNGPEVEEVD

Target: DnaJ chaperone Mas5 (Schizosaccharomyces pombe) (UniProt O74752)
Test: co-IP; lysates of log-phase S. pombe cells in Buffer A (phosphate, 150 mM NaCl, 2 mM EDTA, 50 mM NaF, 0.1 mM Na3VO4, protease inhibitors); anti-myc antibodies and Protein A (methods) or Protein-G beads, 1 hour; 6 washes; blots with anti-myc and anti-GFP (Fig. 4D) or anti-HA (Fig. S4A)

Substance | binding
Ssa1 (from UniProt Q10265 1-644) | binds
Ssa2 (from UniProt O59855 1-647) | binds
